Experimental data published in the supplement of paper PMC10849652.
Some of the results follow.

By UniProt entry, the sequences of proteins in these tests, tags left out. Where a name states a change or a piece, a line headed by the entry shows the natural chain unless it says otherwise.
UniProt Q9ULC8: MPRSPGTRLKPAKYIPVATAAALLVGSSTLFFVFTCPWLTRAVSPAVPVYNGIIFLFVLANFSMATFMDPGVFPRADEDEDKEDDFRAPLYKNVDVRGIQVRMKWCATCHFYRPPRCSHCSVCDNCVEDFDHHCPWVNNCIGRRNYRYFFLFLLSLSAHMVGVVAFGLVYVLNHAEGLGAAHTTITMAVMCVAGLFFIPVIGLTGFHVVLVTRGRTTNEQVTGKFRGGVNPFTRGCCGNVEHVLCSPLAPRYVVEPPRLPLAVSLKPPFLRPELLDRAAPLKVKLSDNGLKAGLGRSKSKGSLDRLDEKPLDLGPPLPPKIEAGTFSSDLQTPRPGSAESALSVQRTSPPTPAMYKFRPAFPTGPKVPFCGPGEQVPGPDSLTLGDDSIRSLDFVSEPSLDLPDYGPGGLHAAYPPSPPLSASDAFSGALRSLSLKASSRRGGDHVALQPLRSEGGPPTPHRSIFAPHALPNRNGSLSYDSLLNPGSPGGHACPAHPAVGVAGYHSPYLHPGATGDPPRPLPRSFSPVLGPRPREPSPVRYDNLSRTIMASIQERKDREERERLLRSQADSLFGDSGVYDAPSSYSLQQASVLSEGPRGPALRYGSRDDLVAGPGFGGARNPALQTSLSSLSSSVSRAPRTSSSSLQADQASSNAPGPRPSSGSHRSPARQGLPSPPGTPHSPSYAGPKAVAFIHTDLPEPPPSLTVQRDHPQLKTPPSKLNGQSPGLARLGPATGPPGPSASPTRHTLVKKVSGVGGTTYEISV
UniProt Q8TBF4: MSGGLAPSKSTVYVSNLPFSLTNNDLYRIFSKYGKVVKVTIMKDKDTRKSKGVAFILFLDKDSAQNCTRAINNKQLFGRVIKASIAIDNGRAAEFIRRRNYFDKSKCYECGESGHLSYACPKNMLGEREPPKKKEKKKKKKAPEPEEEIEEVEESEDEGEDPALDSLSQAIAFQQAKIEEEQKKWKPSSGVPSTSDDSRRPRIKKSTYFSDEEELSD
UniProt O95070: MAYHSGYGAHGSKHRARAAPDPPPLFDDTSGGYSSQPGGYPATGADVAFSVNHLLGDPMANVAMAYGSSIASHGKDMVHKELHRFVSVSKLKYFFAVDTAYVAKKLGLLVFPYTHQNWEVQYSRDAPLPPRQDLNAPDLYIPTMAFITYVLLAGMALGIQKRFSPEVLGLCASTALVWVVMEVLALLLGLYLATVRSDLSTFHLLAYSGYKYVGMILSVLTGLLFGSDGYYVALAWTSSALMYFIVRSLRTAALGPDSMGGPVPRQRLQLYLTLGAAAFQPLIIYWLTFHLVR
UniProt Q9H1B5: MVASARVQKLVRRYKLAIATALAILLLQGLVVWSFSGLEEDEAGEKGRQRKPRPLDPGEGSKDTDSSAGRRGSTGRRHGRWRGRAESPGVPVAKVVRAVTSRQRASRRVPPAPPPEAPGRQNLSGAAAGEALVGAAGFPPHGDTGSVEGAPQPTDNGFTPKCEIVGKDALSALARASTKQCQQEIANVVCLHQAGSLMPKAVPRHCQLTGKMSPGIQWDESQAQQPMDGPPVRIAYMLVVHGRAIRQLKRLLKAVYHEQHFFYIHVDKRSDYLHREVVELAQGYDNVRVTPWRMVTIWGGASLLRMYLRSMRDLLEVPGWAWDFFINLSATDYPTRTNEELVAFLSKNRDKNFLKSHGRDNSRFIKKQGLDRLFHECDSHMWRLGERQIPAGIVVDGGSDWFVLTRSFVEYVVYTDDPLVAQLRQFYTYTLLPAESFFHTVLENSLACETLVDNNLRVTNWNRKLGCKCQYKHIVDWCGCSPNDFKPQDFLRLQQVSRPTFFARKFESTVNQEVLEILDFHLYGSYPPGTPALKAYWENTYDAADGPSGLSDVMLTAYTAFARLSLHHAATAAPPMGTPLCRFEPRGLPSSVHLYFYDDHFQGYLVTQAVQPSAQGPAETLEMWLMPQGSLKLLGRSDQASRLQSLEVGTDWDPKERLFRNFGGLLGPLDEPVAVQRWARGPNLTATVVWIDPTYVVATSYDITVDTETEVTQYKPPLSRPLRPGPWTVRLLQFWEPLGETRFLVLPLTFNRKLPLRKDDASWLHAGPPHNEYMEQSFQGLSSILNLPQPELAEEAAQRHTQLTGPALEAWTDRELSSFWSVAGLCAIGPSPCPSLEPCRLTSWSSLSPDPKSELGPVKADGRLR
UniProt Q9BQ24: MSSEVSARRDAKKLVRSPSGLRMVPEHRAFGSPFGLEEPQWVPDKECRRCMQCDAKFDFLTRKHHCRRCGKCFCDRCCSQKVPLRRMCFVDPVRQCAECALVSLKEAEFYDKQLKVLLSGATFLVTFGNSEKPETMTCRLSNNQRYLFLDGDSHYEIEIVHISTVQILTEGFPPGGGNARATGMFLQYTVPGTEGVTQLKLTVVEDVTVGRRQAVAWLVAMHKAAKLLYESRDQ
UniProt Q8NCN2: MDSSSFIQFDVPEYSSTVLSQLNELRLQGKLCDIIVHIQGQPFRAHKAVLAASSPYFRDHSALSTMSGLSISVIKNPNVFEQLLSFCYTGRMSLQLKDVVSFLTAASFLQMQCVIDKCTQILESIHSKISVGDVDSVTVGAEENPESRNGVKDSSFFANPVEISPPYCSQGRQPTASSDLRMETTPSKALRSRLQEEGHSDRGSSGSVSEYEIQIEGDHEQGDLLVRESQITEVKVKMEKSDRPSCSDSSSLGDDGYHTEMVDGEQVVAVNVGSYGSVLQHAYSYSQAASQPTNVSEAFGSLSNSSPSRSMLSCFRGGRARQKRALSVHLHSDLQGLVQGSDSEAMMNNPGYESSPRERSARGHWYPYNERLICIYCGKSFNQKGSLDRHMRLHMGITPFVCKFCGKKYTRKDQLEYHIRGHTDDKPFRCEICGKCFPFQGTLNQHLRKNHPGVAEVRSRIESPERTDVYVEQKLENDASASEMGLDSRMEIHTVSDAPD
UniProt Q5T750: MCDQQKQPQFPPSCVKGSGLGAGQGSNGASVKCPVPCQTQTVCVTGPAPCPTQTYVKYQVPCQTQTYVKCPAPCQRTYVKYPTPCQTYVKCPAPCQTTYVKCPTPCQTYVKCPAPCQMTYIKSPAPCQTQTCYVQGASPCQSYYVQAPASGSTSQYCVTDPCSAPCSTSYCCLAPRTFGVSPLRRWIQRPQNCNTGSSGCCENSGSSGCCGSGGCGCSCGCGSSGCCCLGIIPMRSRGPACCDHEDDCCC
UniProt Q9BYJ9: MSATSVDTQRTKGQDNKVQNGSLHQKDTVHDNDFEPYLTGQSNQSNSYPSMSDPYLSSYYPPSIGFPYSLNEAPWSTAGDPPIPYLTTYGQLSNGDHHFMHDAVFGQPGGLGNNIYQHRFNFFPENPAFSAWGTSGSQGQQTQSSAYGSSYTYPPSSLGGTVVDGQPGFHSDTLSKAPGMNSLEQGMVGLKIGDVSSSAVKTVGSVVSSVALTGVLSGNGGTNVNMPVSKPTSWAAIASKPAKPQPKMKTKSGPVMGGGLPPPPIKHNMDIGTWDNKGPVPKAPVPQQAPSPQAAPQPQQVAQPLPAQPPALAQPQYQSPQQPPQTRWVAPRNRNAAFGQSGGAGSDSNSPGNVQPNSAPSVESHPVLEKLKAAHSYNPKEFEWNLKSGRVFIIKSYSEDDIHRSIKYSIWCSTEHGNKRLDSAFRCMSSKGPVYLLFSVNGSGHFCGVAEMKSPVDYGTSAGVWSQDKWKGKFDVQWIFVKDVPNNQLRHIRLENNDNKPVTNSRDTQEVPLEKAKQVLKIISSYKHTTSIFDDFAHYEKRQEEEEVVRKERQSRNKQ
UniProt Q969W1: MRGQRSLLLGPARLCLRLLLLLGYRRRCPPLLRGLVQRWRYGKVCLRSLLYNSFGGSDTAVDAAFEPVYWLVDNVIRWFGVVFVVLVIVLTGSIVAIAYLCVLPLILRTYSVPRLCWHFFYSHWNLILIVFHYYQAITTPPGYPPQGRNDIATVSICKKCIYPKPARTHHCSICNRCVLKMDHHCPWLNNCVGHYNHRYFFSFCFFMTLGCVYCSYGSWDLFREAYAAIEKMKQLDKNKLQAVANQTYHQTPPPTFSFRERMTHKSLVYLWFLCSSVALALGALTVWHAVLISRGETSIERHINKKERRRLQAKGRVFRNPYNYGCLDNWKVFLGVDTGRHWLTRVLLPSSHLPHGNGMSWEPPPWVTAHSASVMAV
UniProt Q5T200: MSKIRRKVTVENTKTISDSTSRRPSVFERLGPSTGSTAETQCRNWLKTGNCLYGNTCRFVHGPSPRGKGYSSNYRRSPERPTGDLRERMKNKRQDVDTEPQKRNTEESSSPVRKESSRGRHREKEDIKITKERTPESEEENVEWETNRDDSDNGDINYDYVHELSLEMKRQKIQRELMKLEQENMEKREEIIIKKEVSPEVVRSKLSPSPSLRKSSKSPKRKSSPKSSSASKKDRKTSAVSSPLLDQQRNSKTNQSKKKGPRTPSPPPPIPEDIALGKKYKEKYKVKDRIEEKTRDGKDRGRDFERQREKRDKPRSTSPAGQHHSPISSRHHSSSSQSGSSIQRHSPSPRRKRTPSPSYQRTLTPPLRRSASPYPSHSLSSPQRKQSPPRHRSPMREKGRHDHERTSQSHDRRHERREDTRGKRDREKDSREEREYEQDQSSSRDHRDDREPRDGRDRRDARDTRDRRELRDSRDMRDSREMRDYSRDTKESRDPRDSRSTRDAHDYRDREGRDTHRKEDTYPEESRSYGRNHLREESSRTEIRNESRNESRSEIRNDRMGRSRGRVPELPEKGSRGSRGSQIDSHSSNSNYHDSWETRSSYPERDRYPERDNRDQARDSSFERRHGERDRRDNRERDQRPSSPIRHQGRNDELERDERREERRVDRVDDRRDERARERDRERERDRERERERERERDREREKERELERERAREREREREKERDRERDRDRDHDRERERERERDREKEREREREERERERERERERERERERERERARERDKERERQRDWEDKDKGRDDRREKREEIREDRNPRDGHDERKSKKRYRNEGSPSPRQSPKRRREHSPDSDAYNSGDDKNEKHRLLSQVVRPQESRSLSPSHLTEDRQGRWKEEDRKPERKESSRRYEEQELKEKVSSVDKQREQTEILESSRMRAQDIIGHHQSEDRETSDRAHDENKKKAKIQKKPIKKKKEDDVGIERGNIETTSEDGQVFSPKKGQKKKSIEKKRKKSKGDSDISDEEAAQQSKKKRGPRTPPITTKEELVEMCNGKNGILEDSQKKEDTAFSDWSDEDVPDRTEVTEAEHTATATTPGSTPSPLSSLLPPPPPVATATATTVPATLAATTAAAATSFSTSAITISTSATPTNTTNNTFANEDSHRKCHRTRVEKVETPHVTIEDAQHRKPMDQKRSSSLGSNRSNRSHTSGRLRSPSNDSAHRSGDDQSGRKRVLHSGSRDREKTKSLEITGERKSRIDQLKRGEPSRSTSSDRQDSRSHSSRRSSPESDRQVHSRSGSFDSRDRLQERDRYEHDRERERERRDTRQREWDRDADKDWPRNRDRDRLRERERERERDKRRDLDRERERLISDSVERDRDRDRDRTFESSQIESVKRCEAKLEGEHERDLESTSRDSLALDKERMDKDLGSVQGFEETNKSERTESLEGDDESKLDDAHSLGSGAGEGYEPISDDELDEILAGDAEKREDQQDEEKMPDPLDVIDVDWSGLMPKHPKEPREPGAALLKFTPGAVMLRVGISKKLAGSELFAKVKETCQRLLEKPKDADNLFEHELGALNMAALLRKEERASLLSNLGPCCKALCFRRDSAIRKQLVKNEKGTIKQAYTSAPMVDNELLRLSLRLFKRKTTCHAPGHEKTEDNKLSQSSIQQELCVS
UniProt P07947, whole entry, looked up: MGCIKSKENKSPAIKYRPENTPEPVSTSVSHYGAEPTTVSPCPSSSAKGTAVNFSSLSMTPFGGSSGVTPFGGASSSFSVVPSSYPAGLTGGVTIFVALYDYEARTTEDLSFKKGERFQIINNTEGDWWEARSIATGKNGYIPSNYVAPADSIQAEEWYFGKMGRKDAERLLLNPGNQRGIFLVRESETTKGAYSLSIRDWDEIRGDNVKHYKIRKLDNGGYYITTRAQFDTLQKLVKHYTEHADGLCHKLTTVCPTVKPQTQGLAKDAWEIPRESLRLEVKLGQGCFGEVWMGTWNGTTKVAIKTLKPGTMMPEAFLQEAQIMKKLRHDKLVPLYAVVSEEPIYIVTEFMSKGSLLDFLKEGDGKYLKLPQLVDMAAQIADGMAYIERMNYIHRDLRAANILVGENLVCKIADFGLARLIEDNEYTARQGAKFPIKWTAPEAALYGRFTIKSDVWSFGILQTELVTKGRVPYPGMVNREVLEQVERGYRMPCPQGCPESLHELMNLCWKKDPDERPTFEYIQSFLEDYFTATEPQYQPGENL
UniProt Q9BWQ6: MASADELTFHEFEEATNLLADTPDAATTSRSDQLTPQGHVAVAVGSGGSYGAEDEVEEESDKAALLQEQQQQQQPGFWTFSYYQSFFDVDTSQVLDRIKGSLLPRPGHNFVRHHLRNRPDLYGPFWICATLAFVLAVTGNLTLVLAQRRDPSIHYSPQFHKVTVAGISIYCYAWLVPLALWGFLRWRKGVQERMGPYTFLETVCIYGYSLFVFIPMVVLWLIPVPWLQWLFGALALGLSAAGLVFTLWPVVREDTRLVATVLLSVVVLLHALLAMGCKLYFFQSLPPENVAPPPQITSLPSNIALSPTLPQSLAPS

How the values were obtained:
Assay in all cases: log2 fold change, soluble protein after heating vs DMSO (PISA); higher = thermal stabilisation; K562 cells, 10 uM, 30 min; active = over 0.2 and 3.5 SD of the protein, either way, in both replicates (recomputed)
vorinostat = compound: O=C(CCCCCCC(=O)Nc1ccccc1)NO [vorinostat]
Method in brief: (§1)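 Thermal stability values are relative to control samples and come from duplicates. They are expressed as log2 fold changes. For measurement, K562 cells (2×10^6 cells/mL) received 10 μM compound for 30 min, and aliquots were heated for 3 min over 48°C-58°C, pooled, and extracted at 4°C in PBS with 0.5% NP-40. Soluble protein, the supernatant after 21,000xg for 90 min, was quantified by TMTpro 16plex LC-MS/MS with equalised channel sums.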

[1] = compound: O=C1NC(=O)C(c2cnc3ccccn23)=C1c1cn2c3c(cc(F)cc13)CN(C(=O)N1CCCCC1)CC2
Method in brief: as §1

[2] = compound: NC1(c2ccc(-c3nc4ccn5c(=O)[nH]nc5c4cc3-c3ccccc3)cc2)CCC1
Method in brief: as §1

[3] = compound: NCC(=O)Nc1ccc(-n2nc(C(F)(F)F)cc2-c2ccc3c(ccc4ccccc43)c2)cc1
Method in brief: as §1

citarinostat = compound: O=C(CCCCCCNC(=O)c1cnc(N(c2ccccc2)c2ccccc2Cl)nc1)NO [citarinostat]
Method in brief: as §1

silmitasertib = compound: O=C(O)c1ccc2c(c1)nc(Nc1cccc(Cl)c1)c1ccncc12 [silmitasertib]
Method in brief: as §1

[4] = compound: c1cc(OCCN2CCCCC2)cc(-c2n[nH]c3ccc(-c4nnc[nH]4)cc23)c1
Method in brief: as §1

entospletinib = compound: c1cn2cc(-c3ccc4cn[nH]c4c3)nc(Nc3ccc(N4CCOCC4)cc3)c2n1 [entospletinib]
Method in brief: as §1

[5] = compound: NC(=O)c1cnc(N[C@@H]2CCCC[C@@H]2N)nc1Nc1cccc(-n2nccn2)c1
Method in brief: as §1

[6] = compound: NC(=O)Nc1cc(-c2cccc(F)c2)sc1C(=O)N[C@H]1CCCNC1
Method in brief: as §1

entinostat = compound: Nc1ccccc1NC(=O)c1ccc(CNC(=O)OCc2cccnc2)cc1 [entinostat]
Method in brief: as §1

Measured: log2 fold change

ZDHHC9 (UniProt Q9Y397)
inactive: vorinostat -0.158

ZDHHC8 isoform 3 (UniProt Q9ULC8)
inactive: [1] 0.029

XRN1 (UniProt Q8IZH2)
inactive: [2] 0.473 | [3] 0.12 | vorinostat 0.062 | citarinostat 0 | silmitasertib 0.149 | [1] 0.429 | [4] -0.052 | entospletinib 0.236

ZFP36L2 (UniProt P47974)
inactive: [2] 0.018 | silmitasertib -0.056

ZDHHC7 isoform 2 (UniProt Q9NXF8)
inactive: [5] -0.064 | [3] -0.056 | vorinostat 0.006 | citarinostat -0.037 | [1] -0.021 | [4] -0.191

ZCRB1 (UniProt Q8TBF4)
inactive: [6] -0.08 | entinostat -0.174 | vorinostat -0.073 | citarinostat -0.032 | [4] -0.024 | entospletinib 0.094

YIF1A (UniProt O95070)
inactive: [5] 0.07 | [2] 0.049 | [3] 0.118 | vorinostat -0.028 | silmitasertib 0.055

XYLT2 (UniProt Q9H1B5)
inactive: [1] -0.195

XRCC2 (UniProt O43543)
inactive: [2] -0.047 | silmitasertib 0.12 | [1] -0.029

Taken from above (two entries):
ZCRB1 (UniProt Q8TBF4)
inactive: [6] -0.08 | entinostat -0.174 | vorinostat -0.073 | citarinostat -0.032 | [4] -0.024 | entospletinib 0.094

YIF1A (UniProt O95070)
inactive: [5] 0.07 | [2] 0.049 | [3] 0.118 | vorinostat -0.028 | silmitasertib 0.055

Additional entries follow.

YBX1 (UniProt C9J5V9)
inactive: [5] -0.031

XPC (UniProt Q01831)
inactive: [5] -0.015 | [3] 0.352 | citarinostat -0.178 | [1] 0.206 | [4] -0.004 | entospletinib 0.107

ZDHHC6 (UniProt Q9H6R6)
inactive: vorinostat -0.108 | citarinostat 0.149 | [1] 0.089 | [4] -0.005

XYLB (UniProt O75191)
inactive: [1] -0.333

ZBTB3 (UniProt Q9H5J0)
inactive: [5] 0.097 | [2] 0.008 | [3] 0.061 | vorinostat -0.126 | citarinostat -0.111 | silmitasertib -0.001 | [4] 0.084 | entospletinib 0.135

ZFYVE21 isoform 2 (UniProt Q9BQ24)
inactive: [5] -0.467 | [3] 0.025 | vorinostat 0.14 | citarinostat -0.057 | [4] -0.101 | entospletinib 0.136

ZC2HC1A (UniProt Q96GY0)
inactive: [5] 0.06 | [2] -0.047 | [3] 0.164 | vorinostat -0.244 | citarinostat -0.099 | silmitasertib 0.125 | [1] 0.176 | [4] -0.135 | entospletinib 0.06

XPA (UniProt P23025)
inactive: [5] -0.196 | [3] -0.008 | vorinostat -0.195 | [1] -0.003

YBEY (UniProt P58557)
inactive: vorinostat -0.031

ZBTB34 (UniProt Q8NCN2)
inactive: [5] 0.154

XP32 (UniProt Q5T750)
inactive: [5] 0.537 | [2] 0.184 | vorinostat 0.077 | citarinostat 0.026 | silmitasertib 0.213 | [4] 0.907 | entospletinib -0.406

ZBTB44 (UniProt Q8NCP5)
inactive: [5] 0.176

YTHDF1 (UniProt Q9BYJ9)
inactive: [1] 0.343

ZDHHC16 (UniProt Q969W1)
inactive: [6] -0.097 | [3] -0.082 | entinostat -0.125 | citarinostat -0.036 | [4] -0.068 | entospletinib 0.132

YTHDC2 (UniProt Q9H6S0)
inactive: [5] 0.015 | [2] 0.214 | vorinostat 0.18 | citarinostat -0.126 | silmitasertib 0.192 | [1] 0.305 | [4] -0.051 | entospletinib 0.359

ZC3H11A (UniProt O75152)
inactive: [2] -0.09 | [3] -0.063 | vorinostat 0.2 | citarinostat 0.011 | silmitasertib 0.078 | [4] -0.051 | entospletinib -0.176

ZC3H13 (UniProt Q5T200)
inactive: [5] -0.253 | [2] 0.247 | [3] -0.269 | vorinostat -0.311 | citarinostat -0.376 | silmitasertib 0.358 | [1] 0.154 | [4] 0 | entospletinib 0.111

ZDHHC12 isoform 3 (UniProt Q96GR4)
inactive: [5] 0.027 | [3] 0.102

ZFX isoform 3 (UniProt P17010)
inactive: [3] 0.167

YES1 (UniProt P07947)
inactive: [5] -0.114 | [2] -0.012 | [3] 0.001 | vorinostat 0.069 | citarinostat 0.008 | silmitasertib 0.004 | [1] 0.011 | [4] -0.235

YWHAZ (UniProt E7ESK7)
inactive: [5] -0.186 | [2] -0.206 | citarinostat -0.053 | silmitasertib -0.065 | [1] -0.239 | [4] 0.095

ZNF225 (UniProt Q9UK10)
inactive: [5] -0.056

ZNF131 (UniProt P52739)
inactive: [6] -0.13 | entinostat -0.051 | [1] -0.098

ZKSCAN4 (UniProt Q969J2)
inactive: [5] -0.034 | [3] 0.045

YIPF2 (UniProt Q9BWQ6)
inactive: [1] -0.063
